In patent US9585854B2, “N-acetyl-L-cysteine for use in in vitro fertilization” (IASOMAI AB, priority 2012, dated 2017):
At least one structure is not confirmed: it was looked up by name or label, or the drawing left a doubt.

System: Isolated uteri from virgin Wistar rats
Assay: isolated organ bath study of uterine contractions
Design: species or system rat
Method: Animals were kept at 22° C., housed 3 per cage and fed ad libitum. Isolated uteri from virgin Wistar rats (200-280 g) in estrous, which was determined by examination of a daily vaginal smear, were used.
Protamine sulphate (PS) and NAC were dissolved in pure water.
All rats were sacrificed by cervical dislocation. The uterine horns were excised, carefully cleaned and mounted vertically in a 10 ml volume organ bath containing De Jalon's solution (NaCl 154 mM, KCl 5.6 mM, CaCl2×2H2O 0.41 mM, NaHCO 2 5.9 mM and glucose 2.8 mM), under 1 g tension, aerated with 95% oxygen and 5% carbon dioxide at 37° C. […] After 10 min increasing concentrations of PS were added until the total cessation of contractions was observed.
Myometrial tension was recorded isometrically with an organ bath and transducer.
Effects of treatments on uterine contractions were calculated as percentages for control, untreated and contracting conditions. Each data value is expressed as the mean±SEM. differences between groups were analyzed by two-way ANOVA. EC50 values were compared using one-way ANOVA

COc1ccc2c(c1)c(CC(=O)O)c(C)n2C(=O)c1ccc(Cl)cc1 [indometacin]
EC50 of PS-induced relaxation after pretreatment (calcium ion-induced active uteri pretreated with indometacin): higher EC50 values when compared to PS-treated uteri | EC50 of PS-induced relaxation after pretreatment (spontaneously active uteri pretreated with indometacin 1 μg/ml): significantly lower than the other two EC50 values obtained
